The source of these data is US8552002B2 (Novartis AG, priority 2004, dated 2013).

Amino acid sequences for entries named in this document (tags omitted). A change or cut given only in a name is not applied to a line headed by its entry. Residues count along the entry.
UniProt P00519, 28-1130 E255V limits assumed: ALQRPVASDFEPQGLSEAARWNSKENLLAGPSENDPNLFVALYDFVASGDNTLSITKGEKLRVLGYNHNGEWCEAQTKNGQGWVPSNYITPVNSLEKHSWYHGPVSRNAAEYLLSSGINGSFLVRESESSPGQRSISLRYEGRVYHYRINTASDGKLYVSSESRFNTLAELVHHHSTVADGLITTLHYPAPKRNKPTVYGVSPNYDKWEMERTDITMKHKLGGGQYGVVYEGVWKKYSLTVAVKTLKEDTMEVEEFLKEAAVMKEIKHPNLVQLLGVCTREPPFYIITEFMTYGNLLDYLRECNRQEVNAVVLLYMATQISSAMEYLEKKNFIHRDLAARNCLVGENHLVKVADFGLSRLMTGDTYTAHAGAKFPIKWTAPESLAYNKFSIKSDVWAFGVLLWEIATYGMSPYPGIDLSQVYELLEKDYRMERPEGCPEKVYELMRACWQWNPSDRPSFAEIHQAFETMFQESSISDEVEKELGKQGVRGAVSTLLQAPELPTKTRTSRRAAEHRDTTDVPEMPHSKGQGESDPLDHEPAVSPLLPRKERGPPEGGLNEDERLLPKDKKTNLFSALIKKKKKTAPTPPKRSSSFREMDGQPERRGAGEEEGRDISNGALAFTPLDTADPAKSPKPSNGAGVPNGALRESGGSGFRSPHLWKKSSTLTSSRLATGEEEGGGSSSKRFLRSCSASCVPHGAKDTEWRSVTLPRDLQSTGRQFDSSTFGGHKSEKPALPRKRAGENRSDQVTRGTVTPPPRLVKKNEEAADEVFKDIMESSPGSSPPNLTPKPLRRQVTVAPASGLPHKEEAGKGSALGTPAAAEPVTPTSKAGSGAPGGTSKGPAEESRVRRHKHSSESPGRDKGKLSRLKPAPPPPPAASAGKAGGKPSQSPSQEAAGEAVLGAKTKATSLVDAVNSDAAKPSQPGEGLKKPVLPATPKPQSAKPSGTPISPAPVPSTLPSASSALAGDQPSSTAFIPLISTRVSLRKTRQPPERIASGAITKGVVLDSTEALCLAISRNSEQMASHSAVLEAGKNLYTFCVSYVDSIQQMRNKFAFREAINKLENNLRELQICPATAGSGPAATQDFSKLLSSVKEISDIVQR
UniProt P00519, 28-1130 F317L limits assumed: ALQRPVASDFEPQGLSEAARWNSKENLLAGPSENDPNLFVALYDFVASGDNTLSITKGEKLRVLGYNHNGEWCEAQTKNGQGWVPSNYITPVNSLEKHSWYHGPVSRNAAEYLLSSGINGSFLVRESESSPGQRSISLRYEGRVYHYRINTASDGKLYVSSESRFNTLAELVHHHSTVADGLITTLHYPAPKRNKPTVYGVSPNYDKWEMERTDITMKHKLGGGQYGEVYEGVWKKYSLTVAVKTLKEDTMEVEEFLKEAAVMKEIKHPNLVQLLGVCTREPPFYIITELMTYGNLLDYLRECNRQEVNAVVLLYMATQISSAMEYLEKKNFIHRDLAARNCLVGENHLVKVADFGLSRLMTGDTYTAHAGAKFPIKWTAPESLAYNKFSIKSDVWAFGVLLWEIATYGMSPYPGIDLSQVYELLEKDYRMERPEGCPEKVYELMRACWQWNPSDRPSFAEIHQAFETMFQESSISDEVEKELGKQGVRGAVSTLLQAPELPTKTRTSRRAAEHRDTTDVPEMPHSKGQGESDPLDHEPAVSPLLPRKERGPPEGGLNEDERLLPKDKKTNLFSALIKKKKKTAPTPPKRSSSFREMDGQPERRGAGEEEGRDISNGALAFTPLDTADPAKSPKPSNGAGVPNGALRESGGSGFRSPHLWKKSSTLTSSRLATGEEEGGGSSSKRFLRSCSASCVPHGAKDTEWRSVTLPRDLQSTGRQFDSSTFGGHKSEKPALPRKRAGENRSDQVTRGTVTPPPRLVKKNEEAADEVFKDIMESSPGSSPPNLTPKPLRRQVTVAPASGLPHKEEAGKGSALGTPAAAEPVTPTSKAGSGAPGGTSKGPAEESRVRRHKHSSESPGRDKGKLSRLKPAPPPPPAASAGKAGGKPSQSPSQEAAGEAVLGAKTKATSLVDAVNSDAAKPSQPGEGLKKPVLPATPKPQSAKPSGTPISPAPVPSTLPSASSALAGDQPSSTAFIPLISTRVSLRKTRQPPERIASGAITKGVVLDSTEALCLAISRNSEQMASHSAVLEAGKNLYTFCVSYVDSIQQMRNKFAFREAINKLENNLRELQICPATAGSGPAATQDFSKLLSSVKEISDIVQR
UniProt P00519, 28-1130 G250E limits assumed: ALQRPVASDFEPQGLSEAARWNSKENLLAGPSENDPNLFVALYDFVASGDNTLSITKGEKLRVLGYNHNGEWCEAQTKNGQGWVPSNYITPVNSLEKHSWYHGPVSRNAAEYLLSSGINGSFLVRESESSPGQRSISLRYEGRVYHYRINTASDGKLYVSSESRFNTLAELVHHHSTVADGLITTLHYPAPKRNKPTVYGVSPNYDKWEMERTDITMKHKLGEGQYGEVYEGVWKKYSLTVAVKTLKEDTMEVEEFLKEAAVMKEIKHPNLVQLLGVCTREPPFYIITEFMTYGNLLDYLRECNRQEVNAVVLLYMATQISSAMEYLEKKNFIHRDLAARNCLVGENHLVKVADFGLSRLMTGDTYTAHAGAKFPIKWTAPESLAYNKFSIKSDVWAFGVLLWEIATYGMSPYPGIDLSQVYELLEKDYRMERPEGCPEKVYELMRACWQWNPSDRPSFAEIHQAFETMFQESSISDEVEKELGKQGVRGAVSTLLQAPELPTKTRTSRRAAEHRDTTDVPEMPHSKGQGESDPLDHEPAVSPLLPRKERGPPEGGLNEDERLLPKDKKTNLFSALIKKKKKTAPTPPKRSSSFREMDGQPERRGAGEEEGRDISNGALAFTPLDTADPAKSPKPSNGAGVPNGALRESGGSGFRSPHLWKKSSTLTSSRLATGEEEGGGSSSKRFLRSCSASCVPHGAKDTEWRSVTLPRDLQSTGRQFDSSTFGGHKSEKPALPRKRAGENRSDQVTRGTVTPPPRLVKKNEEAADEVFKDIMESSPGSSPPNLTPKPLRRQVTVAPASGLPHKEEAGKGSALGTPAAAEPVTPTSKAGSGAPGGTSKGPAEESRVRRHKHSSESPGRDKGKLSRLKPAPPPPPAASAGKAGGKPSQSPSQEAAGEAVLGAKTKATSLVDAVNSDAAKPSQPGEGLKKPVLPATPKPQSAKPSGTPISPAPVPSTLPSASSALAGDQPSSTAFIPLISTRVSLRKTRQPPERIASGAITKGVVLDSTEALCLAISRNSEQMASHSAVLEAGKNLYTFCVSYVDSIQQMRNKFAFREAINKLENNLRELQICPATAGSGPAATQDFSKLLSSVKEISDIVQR
UniProt P00519, 28-1130 M351T limits assumed: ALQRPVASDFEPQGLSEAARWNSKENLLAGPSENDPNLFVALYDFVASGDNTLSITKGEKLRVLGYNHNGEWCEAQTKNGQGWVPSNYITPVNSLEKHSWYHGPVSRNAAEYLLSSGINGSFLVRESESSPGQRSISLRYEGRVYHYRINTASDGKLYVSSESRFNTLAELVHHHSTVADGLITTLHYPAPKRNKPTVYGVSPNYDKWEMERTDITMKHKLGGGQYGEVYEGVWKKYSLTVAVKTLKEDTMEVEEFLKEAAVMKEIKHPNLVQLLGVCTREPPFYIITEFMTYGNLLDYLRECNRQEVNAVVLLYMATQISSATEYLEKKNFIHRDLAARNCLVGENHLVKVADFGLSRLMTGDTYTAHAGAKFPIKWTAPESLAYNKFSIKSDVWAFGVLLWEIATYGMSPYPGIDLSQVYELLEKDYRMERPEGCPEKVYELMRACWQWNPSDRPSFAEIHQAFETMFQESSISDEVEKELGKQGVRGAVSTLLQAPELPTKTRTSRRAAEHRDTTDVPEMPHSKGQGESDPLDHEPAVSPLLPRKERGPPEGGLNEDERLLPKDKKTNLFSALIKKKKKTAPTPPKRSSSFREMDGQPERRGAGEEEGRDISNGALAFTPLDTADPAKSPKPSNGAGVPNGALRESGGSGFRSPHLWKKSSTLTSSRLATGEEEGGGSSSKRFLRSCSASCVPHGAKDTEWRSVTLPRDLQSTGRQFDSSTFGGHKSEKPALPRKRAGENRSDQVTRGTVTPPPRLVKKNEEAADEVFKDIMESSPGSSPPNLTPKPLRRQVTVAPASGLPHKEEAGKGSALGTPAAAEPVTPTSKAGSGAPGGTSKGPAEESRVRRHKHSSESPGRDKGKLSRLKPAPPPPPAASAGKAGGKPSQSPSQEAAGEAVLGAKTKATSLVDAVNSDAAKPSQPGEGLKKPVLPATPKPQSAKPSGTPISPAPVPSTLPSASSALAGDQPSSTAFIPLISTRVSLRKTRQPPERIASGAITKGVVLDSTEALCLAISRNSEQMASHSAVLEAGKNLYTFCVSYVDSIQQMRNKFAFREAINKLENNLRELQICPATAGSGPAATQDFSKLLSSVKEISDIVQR
UniProt P00519, 28-1130 T315I limits assumed: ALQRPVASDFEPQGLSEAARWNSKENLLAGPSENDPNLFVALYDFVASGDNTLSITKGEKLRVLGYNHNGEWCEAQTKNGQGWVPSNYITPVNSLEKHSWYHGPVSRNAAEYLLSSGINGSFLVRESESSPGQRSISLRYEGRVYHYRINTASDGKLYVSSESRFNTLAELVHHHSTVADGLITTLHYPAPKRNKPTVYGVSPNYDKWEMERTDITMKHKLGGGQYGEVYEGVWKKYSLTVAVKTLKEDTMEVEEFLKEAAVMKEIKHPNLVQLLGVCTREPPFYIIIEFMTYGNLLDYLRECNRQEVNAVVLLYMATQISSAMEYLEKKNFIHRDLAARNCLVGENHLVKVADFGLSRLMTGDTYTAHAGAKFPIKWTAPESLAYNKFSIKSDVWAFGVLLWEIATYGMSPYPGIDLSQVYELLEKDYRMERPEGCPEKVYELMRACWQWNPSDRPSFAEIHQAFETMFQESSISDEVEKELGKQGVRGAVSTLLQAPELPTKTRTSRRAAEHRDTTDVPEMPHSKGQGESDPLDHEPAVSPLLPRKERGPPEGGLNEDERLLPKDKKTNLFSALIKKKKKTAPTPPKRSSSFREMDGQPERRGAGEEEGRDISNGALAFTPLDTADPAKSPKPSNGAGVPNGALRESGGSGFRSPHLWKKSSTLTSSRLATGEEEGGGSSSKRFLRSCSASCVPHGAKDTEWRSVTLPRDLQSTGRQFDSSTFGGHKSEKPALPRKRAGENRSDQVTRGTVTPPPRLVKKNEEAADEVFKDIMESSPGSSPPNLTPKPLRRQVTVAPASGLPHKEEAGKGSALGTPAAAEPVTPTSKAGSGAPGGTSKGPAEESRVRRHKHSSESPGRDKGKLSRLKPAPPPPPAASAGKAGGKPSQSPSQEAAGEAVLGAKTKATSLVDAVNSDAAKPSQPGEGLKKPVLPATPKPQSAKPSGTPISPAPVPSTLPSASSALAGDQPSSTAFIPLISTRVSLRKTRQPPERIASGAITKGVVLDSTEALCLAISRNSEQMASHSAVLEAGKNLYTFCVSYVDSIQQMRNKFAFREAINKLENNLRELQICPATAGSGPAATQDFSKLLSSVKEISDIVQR

SMILES strings stand for the structures. The match of structure and compound is tentative.

One experiment addresses wild type Bcr-abl (Homo sapiens, UniProt P00519). As to the kind of experiment: Antiproliferative effect on cells expressing wild type Bcr-abl. Conditions: read-out: IC50 for wild type Bcr-abl; cell proliferation. On the procedure: 32D-p210 cells are plated into 96 well TC plates at a density of 15,000 cells per well. 50 μL of two fold serial dilutions of the test compound (Cmax is 40 μM) are added to each well (STI571 is included as a positive control). After incubating the cells for 48 hours at 37° C., 5% CO2, 15 μL of MTT (Promega) is added to each well and the cells are incubated for an additional 5 hours. The optical density at 570 nm is quantified spectrophotometrically and IC50 values, the concentration of compound required for 50% inhibition, determined from a dose response curve.
(§1) Compounds of the invention are tested for their antiproliferative effect on Ba/F3 cells expressing either wild type or the mutant forms of BCR-Abl (G250E, E255V, T315I, F317L, M351T) that confers resistance or diminished sensitivity to STI571. The antiproliferative effect of these compounds on the mutant-BCR-Abl expressing cells and on the non transformed cells were tested at 10, 3.3, 1.1 and 0.37 μM as described above (in media lacking IL3). The IC50 values of the compounds lacking toxicity on the untransformed cells were determined from the dose response curves obtained as describe above.

The target of a further experiment is G250E Bcr-abl (Homo sapiens, UniProt P00519, G250E). As to the kind of experiment: Antiproliferative effect on Ba/F3 cells expressing mutant Bcr-abl G250E. Conditions: read-out: IC50 for G250E Bcr-abl; Ba/F3 cell proliferation. On the procedure: as §1
For a further experiment, the target named is E255V Bcr-abl (Homo sapiens, UniProt P00519, E255V). As to the kind of experiment: Antiproliferative effect on Ba/F3 cells expressing mutant Bcr-abl E255V. Conditions: read-out: IC50 for E255V Bcr-abl; Ba/F3 cell proliferation. On the procedure: as §1
A further experiment deals with T315I BCR-Abl (Homo sapiens, UniProt P00519, T315I). As to the kind of experiment: Antiproliferative effect on Ba/F3 cells expressing mutant Bcr-abl T315I. Particulars: read-out: IC50 for T315J Bcr-abl; Ba/F3 cell proliferation. The method, then:
as §1

A further experiment concerns the target F317L Bcr-abl (Homo sapiens, UniProt P00519, F317L). Briefly: Antiproliferative effect on Ba/F3 cells expressing mutant Bcr-abl F317L. Conditions: read-out: IC50 for F317L Bcr-abl; Ba/F3 cell proliferation. The method, then:
as §1

The target of a further experiment is M351T Bcr-abl (Homo sapiens, UniProt P00519, M351T). As to the kind of experiment: Antiproliferative effect on Ba/F3 cells expressing mutant Bcr-abl M351T. Particulars: read-out: IC50 for M351T Bcr-abl; Ba/F3 cell proliferation. On the procedure:
as §1

As a reminder, the IC50 is the concentration that inhibits the measured activity by half. For the compound `CC(=O)Nc1cccc(Nc2cc(N(C)C(=O)Nc3cc(NC(=O)c4cccc(C(F)(F)F)c4)ccc3C)ncn2)c1`, the half-maximal inhibitory concentration (IC50) at wild type Bcr-abl was below 0.5 nM; on G250E Bcr-abl, 38 nM; on E255V Bcr-abl, 44 nM; at T315I BCR-Abl it was 41 nM; at F317L Bcr-abl, below 0.5 nM; at M351T Bcr-abl, below 0.5 nM.
